# Results reported in patent publication US20100143942A1, “METHOD OF DETECTION” (LEIDEN UNIVERSITY, priority 2006, published 2010).
# Test: Titration of a mixture of Hc-Alexa350 and Ty-Cy5 with iodide in air-saturated solution, emission upon excitation at 280 nm
# Type: binding
# Description: The specificity of the method is illustrated by the data presented in FIG. 7, which show a titration of a mixture of Hc-Alexa350 and Ty-Cy5 with iodide in an air-saturated solution. […] Hc. […] The small fluorescence decrease of the latter can be ascribed to the aspecific collisional quenching of the label and/or the Trp fluorescence by iodide. […] The difference between the experimental Kd and the literature value of 3.0±0.3 mM [15] may be related to its dependence on the [O2] in the sample, which may have varied between the two experiments.
molecule,measurement,setting,value
"Ty-Cy5: Streptomyces antibioticus tyrosinase labelled at its N-terminus with the dye Cy5 (conjugate, UniProt P07524 2-273, looked up, N-terminal Cy5 label) Tyrosinase: TVRKNQASLTAEEKRRFVAALLELKRTGRYDAFVTTHNAFILGDTDNGERTGHRSPSFLPWHRRFLLEFERALQSVDASVALPYWDWSADRSTRSSLWAPDFLGGTGRSRDGQVMDGPFAASAGNWPINVRVDGRTFLRRALGAGVSELPTRAEVDSVLAMATYDMAPWNSGSDGFRNHLEGWRGVNLHNRVHVWVGGQMATGVSPNDPVFWLHHAYIDKLWAEWQRRHPSSPYLPGGGTPNVVDLNETMKPWNDTTPAALLDHTRHYTFDV",behaviour of the dye fluorescence upon increasing [I−],excitation at 280 nm,an increase in label fluorescence is observed
same,Hill n (iodide),fitted to Eq. 1,1.00
